This note sets out measurements from paper PMC4511971.

Protein sequences, listed by entry. Tags and fused reporters are not part of them. Residues count along the entry.
UniProt P09038, residues 143-288: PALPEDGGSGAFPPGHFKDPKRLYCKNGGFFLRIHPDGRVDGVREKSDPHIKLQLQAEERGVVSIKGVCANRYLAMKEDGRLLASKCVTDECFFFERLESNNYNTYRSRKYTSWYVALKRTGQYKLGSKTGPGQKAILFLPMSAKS
UniProt P11362, residues 22-376: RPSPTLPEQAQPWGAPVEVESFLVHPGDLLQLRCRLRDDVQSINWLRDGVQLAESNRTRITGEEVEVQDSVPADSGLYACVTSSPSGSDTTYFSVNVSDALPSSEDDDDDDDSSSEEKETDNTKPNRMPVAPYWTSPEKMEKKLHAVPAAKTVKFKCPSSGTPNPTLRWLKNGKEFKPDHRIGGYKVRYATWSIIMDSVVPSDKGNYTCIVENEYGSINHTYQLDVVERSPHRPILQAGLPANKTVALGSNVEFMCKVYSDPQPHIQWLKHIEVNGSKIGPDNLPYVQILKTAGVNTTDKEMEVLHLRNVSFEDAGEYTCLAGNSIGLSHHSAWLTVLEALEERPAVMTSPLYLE

The assay deals with FGF2 (UniProt P09038). Nature of the assay: ELISA; 5 ug/ml heparin coated on a GAG-binding plate as substrate to hold FGF2 (200 ng/ml in PBS, 2 h, 37 °C), blocked with 0.5 % fish gelatin; FGFR-Fc (500 ng/ml) pre-complexed in PBS with increasing amounts of IMB-R1 antiserum (on ice, 2 h) or without it, applied for 1.5 h; bound FGFR-Fc detected with HRP goat anti-human IgG-Fc; both purified. In general terms: ELISA stands for enzyme-linked immunosorbent assay.

These are yes or no findings as the source states them, for the method shown. Some binding calls cover weakened binding; strength is not graded here.

On to “Recombinant human FGFR1c-Fc (FGFR1 IIIc isoform) (from UniProt P11362 22-376) (Fc fusion)”, for which the binding result is “binds”.
